The source of these data is article PMC13484441.

Results are given in words; binding and its absence hold for the method and conditions named. Binding seen in cells or lysates may run through a third protein. A yes stands for co-enrichment or nearness to the bait. Other partners may have been found. Where a sequence is shown, tags or fusion partners need not be part of it.

For assay [1], the target named is T1, U2AF1-3XFLAG (endogenously tagged U2AF1) (human (endogenous in HBEC)) (UniProt Q01081).
T1 sequence: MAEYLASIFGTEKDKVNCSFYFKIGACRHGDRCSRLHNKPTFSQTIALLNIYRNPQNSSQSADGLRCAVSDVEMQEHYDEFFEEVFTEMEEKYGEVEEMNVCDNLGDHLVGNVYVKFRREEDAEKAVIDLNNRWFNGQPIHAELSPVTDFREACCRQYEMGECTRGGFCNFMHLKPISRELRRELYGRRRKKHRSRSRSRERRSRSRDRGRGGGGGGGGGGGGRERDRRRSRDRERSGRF
Kind of assay: affinity purification with mass spectrometry; anti-FLAG magnetic beads incubated with HBEC nuclear extract of U2AF1-3XFLAG cells overnight at 4°C, washed three times with nuclear lysis buffer, on-bead digestion, TMTpro LC-MS/MS; control: parental HBEC line without the tag; n = 3 replicates.

Assay [2] deals with T2, U2AF1-3XFLAG (endogenously tagged U2AF1) (human (endogenous in HBEC)), Q01081.
T2 chain: T1 sequence
Described as above. The conditions noted are these: remark: other sources report otherwise.

B1: DDX42 (protein, UniProt Q86XP3 1-938)
chain: MNWNKGGPGTKRGFGFGGFAISAGKKEEPKLPQQSHSAFGATSSSSGFGKSAPPQLPSFYKIGSKRANFDEENAYFEDEEEDSSNVDLPYIPAENSPTRQQFHSKPVDSDSDDDPLEAFMAEVEDQAARDMKRLEEKDKERKNVKGIRDDIEEEDDQEAYFRYMAENPTAGVVQEEEEDNLEYDSDGNPIAPTKKIIDPLPPIDHSEIDYPPFEKNFYNEHEEITNLTPQQLIDLRHKLNLRVSGAAPPRPGSSFAHFGFDEQLMHQIRKSEYTQPTPIQCQGVPVALSGRDMIGIAKTGSGKTAAFIWPMLIHIMDQKELEPGDGPIAVIVCPTRELCQQIHAECKRFGKAYNLRSVAVYGGGSMWEQAKALQEGAEIVVCTPGRLIDHVKKKATNLQRVSYLVFDEADRMFDMGFEYQVRSIASHVRPDRQTLLFSATFRKKIEKLARDILIDPIRVVQGDIGEANEDVTQIVEILHSGPSKWNWLTRRLVEFTSSGSVLLFVTKKANAEELANNLKQEGHNLGLLHGDMDQSERNKVISDFKKKDIPVLVATDVAARGLDIPSIKTVINYDVARDIDTHTHRIGRTGRAGEKGVAYTLLTPKDSNFAGDLVRNLEGANQHVSKELLDLAMQNAWFRKSRFKGGKGKKLNIGGGGLGYRERPGLGSENMDRGNNNVMSNYEAYKPSTGAMGDRLTAMKAAFQSQYKSHFVAASLSNQKAGSSAAGASGWTSAGSLNSVPTNSAQQGHNSPDSPVTSAAKGIPGFGNTGNISGAPVTYPSAGAQGVNNTASGNNSREGTGGSNGKRERYTENRGSSRHSHGETGNRHSDSPRHGDGGRHGDGYRHPESSSRHTDGHRHGENRHGGSAGRHGENRGANDGRNGESRKEAFNRESKMEPKMEPKVDSSKMDKVDSKTDKTADGFAVPEPPKRKKSRWDS
On to B1, for which the binding result in assay [1] is listed as “binds”.

B2: U2AF2, P26368 1-475 (protein)
chain: MSDFDEFERQLNENKQERDKENRHRKRSHSRSRSRDRKRRSRSRDRRNRDQRSASRDRRRRSKPLTRGAKEEHGGLIRSPRHEKKKKVRKYWDVPPPGFEHITPMQYKAMQAAGQIPATALLPTMTPDGLAVTPTPVPVVGSQMTRQARRLYVGNIPFGITEEAMMDFFNAQMRLGGLTQAPGNPVLAVQINQDKNFAFLEFRSVDETTQAMAFDGIIFQGQSLKIRRPHDYQPLPGMSENPSVYVPGVVSTVVPDSAHKLFIGGLPNYLNDDQVKELLTSFGPLKAFNLVKDSATGLSKGYAFCEYVDINVTDQAIAGLNGMQLGDKKLLVQRASVGAKNATLVSPPSTINQTPVTLQVPGLMSSQVQMGGHPTEVLCLMNMVLPEELLDDEEYEEIVEDVRDECSKYGLVKSIEIPRPVDGVEVPGCGKIFVEFTSVFDCQKAMQGLTGRKFANRVVVTKYCDPDSYHRRDFW
In the case of B2, in assay [2], the binding entry is “binds”.
